Measurements from PubChem BioAssay AID2685 (National Center for Advancing Translational Sciences (NCATS), 2010).
Hit rate of the full screen: of about 320,000 compounds, about 2,100 (0.66%) were called active. This list was built around the results that the source calls inconclusive (neither active nor inactive); the mix of calls is not that of the screen. Calls come from the whole dose curve; as a rule, active = well fitted inhibition curve with a large enough effect in the signal ratio, with a control signal flat (not every such curve was filed as active); inconclusive = small, poorly fitted or top-dose-only effect, or effect the other way, or a change in a side signal; inactive = flat fitted curve, though single readings scatter; the % refers to the signal ratio. A potency beside an inconclusive call is a rough fit, not a confirmed value.

Assay: qHTS Assay for Lipid Storage Modulators in Drosophila S3 Cells
Conditions: BODIPY lipid droplet fluorescence, 18-24 h, cells fed with added oleic acid; lipid storage change, negative = inhibition: at 46.1 µM (top of the series) unless noted
Procedure, shortened: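 Drosophila S3 cells loaded with oleic acid (400 uM, as added) and compounds at several concentrations; lipid droplets imaged by 488-nm laser-scanning cytometry, 500–530 nm intensity and object ratio to cell channel. Percent activity normalized to 20 uM Triacsin C.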
% is set by controls: 0 for no effect and ±100 for the full control effect; potency is the fitted concentration of half-maximal effect.

Row | SMILES | lipid storage change, negative = inhibition | Potency
1 | Cc1c(NC(=O)C(C)OC(=O)CC2CC3CCC2C3)c(=O)n(-c2ccccc2)n1C (stereo unspecified) | inconclusive: -27.2% | 
2 | Cc1ccc(S(=O)(=O)/C(C#N)=C/c2c(N3CCN(C)CC3)nc3ccccn3c2=O)cc1 |  | inconclusive: 6.51 µM [falling, single point]
3 | COc1ccc(/C(N)=N/OC(=O)Cc2ccc(C)cc2)cc1OC | inconclusive: 51.9% | 
4 | CCOc1ccc(N(CC(=O)NC(C(C)C)C(C)C)S(=O)(=O)c2ccc(OC)c(OC)c2)cc1 | inactive | 
5 | CC(=O)c1cn(CC(=O)NCc2ccc3c(c2)OCO3)c2ccccc12 | inconclusive: -28.2% | 
6 | Nc1[nH]n(-c2ccccc2)c(=O)c1N=Nc1ccccc1 |  | inconclusive: 29.1 µM [cytotoxic, single point]
7 | COC(=O)C(CC(=O)c1ccccc1)CC(=O)c1ccccc1 | inconclusive: 5.49% | 
8 | CCCn1c(=O)n(CC(=O)NCC2CCCO2)c(=O)c2c3c(sc21)COC(C)(C)C3 (stereo unspecified) |  | inconclusive: 1.46 µM [activator, full curve]
9 | COCCCN(C(=S)NC(=O)c1ccc(Br)cc1)c1c(N)n(Cc2ccccc2)c(=O)[nH]c1=O | inconclusive: 8.59% | 
10 | CCN(CC)CCn1c(NCc2nc3ccccc3n2Cc2ccccc2)nc2ccccc21 | inconclusive: -30.2% | 
11 | COC(=O)c1nc2n(n1)C(c1cc(OC)ccc1OC)C(C(=O)OC1CCCCC1)=C(C)N2 (stereo unspecified) | inconclusive: -14.7% | 
12 | Cc1cc(NC(=O)CSc2ncnc3sc4c(c23)CCC(C)C4)no1 (stereo unspecified) | inconclusive: 19.8% | 
13 | COc1ccccc1NC(=O)c1ccc(CS(=O)(=O)c2ccc(C)cc2)cc1 | inconclusive: -32.3% [at 0.00295 µM] | 
14 | Cc1cccc(-n2c(N)cc(=O)[nH]c2=S)c1C |  | inconclusive: 32.6 µM [falling, single point]
15 | Cc1c(CC(=O)N2CCC(C(=O)O)CC2)c(=O)oc2cc3c(cc12)CCC1(CCCCC1)O3 |  | inconclusive: 2.91 µM [activator, partial curve, poor fit]
16 | CN(Cc1ccccc1)C(=O)COC(=O)c1ccccc1Nc1ccccc1 | inactive | 
17 | OC(COc1ccccc1)Cn1c2ccccc2c2ccccc21 (stereo unspecified) |  | inconclusive: 20.6 µM [falling, single point]
18 | COc1ccc(N2C(=O)c3ccccc3NC2c2ccc(OC)c(CSc3ccccn3)c2)cc1 (stereo unspecified) | inconclusive: 0.934% | 
19 | Cc1ccc(C)c(Oc2ccc(S(=O)(=O)N3CCN(C)CC3)cn2)c1 | inconclusive: -68.4% | 
20 | O=S(=O)(Nc1ccncc1)c1ccccc1 |  | inconclusive: 32.6 µM [falling, single point]
21 | COc1ccc(Cl)cc1C(=O)O/N=C(\N)c1ccc(Cl)cc1 |  | inconclusive: 16.4 µM [activator, partial curve]
22 | Cc1ccc2c(c1)N(CC(=O)N1CCCC(C)C1)C(=O)CO2 (stereo unspecified) | inconclusive: -47.7% | 
23 | CCOC(=O)Nc1cc2c(C)cc(=O)oc2cc1C | inactive | 
24 | CCc1noc(C)c1C(=O)N1CCN(S(=O)(=O)c2ccc(C)cc2)CC1 | inconclusive | 
25 | Cc1ccc(CNS(=O)(=O)c2ccc3c(c2)n(C)c(=O)n3C)cc1 |  | inconclusive: 7.31 µM [falling, partial curve]
26 | Cc1cccc(C)c1N(Cc1ccccc1F)S(C)(=O)=O | inconclusive: 15.3% | 

Row | SMILES | lipid storage change, negative = inhibition | Potency
27 | CC(C)(C)c1ccc(S(=O)(=O)N2C=CC(C(F)(F)F)=NCC2)cc1 | inconclusive: 227% | 
28 | COCCNC(=O)c1ccccc1-c1ccccc1C(=O)O |  | inconclusive: 0.82 µM [falling, full curve, poor fit]
29 | Cc1ccc(Cl)cc1NC(=O)Nc1cccs1 | inconclusive: -21.3% | 
30 | Cn1ncc2c(N3CCN(c4ccc(Cl)c(Cl)c4)CC3)ncnc21 |  | inconclusive: 29.1 µM [falling, single point]
31 | CN(C)CCCN1C(=O)C(=O)/C(=C(/O)c2ccc3c(c2)OCCO3)C1c1ccco1 (stereo unspecified) | inconclusive: -8.05% | 
32 | O=C(NC1CCCC1)c1ccc(Cl)s1 | inconclusive: 5.05% | 
33 | O=C(NCC(c1ccc(F)cc1)N1CCOCC1)c1nn(-c2ccccc2)c(=O)c2ccccc12 (stereo unspecified) |  | inconclusive: 29.1 µM [falling, single point]
34 | CCOC(=O)C1CCN(CCC(=O)Nc2ccc(Br)c(C)c2)CC1 | inactive | 
35 | COc1ccc(C2N=C(c3ccccc3)NO2)cc1OC (stereo unspecified) | inconclusive: 21.5% | 
36 | COc1ccc(N(CCC(=O)NCCc2ccccc2)S(=O)(=O)c2ccc(C)cc2C)cc1 |  | inconclusive: 29.1 µM [falling, single point]
37 | COc1ccc(N(C)C(=O)c2onc3c2CCCC3)cc1 | inconclusive: -8.43% | 
38 | CC(=O)Nc1sc(NC(=O)c2ccco2)nc1-c1cccs1 |  | inconclusive: 6.51 µM [falling, single point]
39 | Cc1c(NC(=O)CSc2cccc3cccnc23)c(=O)n(-c2ccccc2)n1C |  | inconclusive: 29.1 µM [activator, single point]
40 | COc1cccc(-c2nnc3sc(-c4ccccn4)nn23)c1 | inconclusive: 16.6% | 
41 | Cc1ccc(S(=O)(=O)CCC(=O)OCc2cc(C)ccc2C)cc1 | inconclusive: 20.1% | 
42 | Cc1ccc(NC(=O)CN(C)C(=O)C(c2ccccc2)c2ccccc2)cc1 | inconclusive: 37.5% | 
43 | COC(=O)C1=C(C)N(Cc2ccccc2)C(=S)N[C@H]1c1cccc(F)c1 |  | inconclusive: 5.8 µM [activator, full curve]
44 | O=C(COC(=O)CCOc1ccccc1)NCc1ccco1 |  | inconclusive: 29.1 µM [falling, single point]
45 | CSCC[C@H](NC(=O)Nc1cccc(Br)c1)C(=O)O | inactive | 
46 | Nc1ccc(C2(c3ccc(N)cc3)OC(=O)c3ccccc32)cc1 |  | inconclusive: 20.6 µM [activator, partial curve]
47 | NC(=O)C1(N2CCCCC2)CCN(C(=S)NC2CCCC2)CC1 | inconclusive: 40.8% | 
48 | CC(=O)c1c(OC(=O)c2ccc(C)cc2)c2ccccc2n1C | inconclusive: 67.5% | 
49 | CC(=O)c1c(C)[nH]c(C(=O)OCC(=O)N2CCc3ccccc3C2)c1C |  | inconclusive: 0.366 µM [falling, partial curve, poor fit]
50 | Cc1cc(C)n(-c2nnc(C)n2NS(=O)(=O)c2ccc(F)cc2)n1 | inconclusive: 2.1% | 
51 | O=S1(=O)CCOCCN1Cc1ccc(Cl)cc1Cl |  | inconclusive: 25.9 µM [activator, single point]
52 | C/C(CC(=O)NC(C)(C)C)=N\NC(=O)COc1ccc(C)cc1Br | inconclusive: -0.915% | 

Row | SMILES | lipid storage change, negative = inhibition | Potency
53 | COCCCNC(=O)COc1ccc(S(=O)(=O)Nc2ccccc2)cc1 |  | inconclusive: 20.6 µM [activator, single point]
54 | Cc1ccc2occ(CN3CCN(c4ccccc4)CC3)c(=O)c2c1 |  | inconclusive: 1.3 µM [falling, full curve, poor fit]
55 | Cc1cc(C)cc(C(=O)NC2CC(C)(C)NC(C)(C)C2)c1 |  | inconclusive: 0.0731 µM [activator, full curve]
56 | CCCCNC(C(=O)Nc1ccc([N+](=O)[O-])cc1Br)c1ccccc1 (stereo unspecified) | inconclusive: 20.8% | 
57 | COCCn1c(=O)[nH]c2cc(C(=O)NCCN3CCN(c4cccc(Cl)c4)CC3)ccc2c1=O | inconclusive: -14.8% | 
58 | Cc1cc(C(=O)COC(=O)c2ccc[nH]c2=O)c(C)n1-c1ccc(F)cc1 | inconclusive: -36.8% | 
59 | CCOC(=O)c1cnn(-c2nc(C)nc3sc4c(c23)CCC4)c1N |  | inconclusive: 1.46 µM [activator, partial curve, poor fit]
60 | COc1ccc(Cl)cc1NC(=O)CN1CCCC1 |  | inconclusive: 0.0046 µM [activator, full curve, poor fit]
61 | NC(=O)CC(NC(=O)Cc1ccc(Br)cc1)c1ccc(NCCc2ccc(Cl)cc2)c([N+](=O)[O-])c1 (stereo unspecified) | inactive | 
62 | Cc1cc(N2CCC(C(=O)NC3CC3)CC2)nc(-c2ccccc2)n1 |  | inconclusive: 6.51 µM [falling, single point]
63 | Cc1ccc(NC(=S)N2CCCC(O)C2)cc1 (stereo unspecified) | inconclusive: 63.4% | 
64 | COc1ccc(Br)cc1S(=O)(=O)NNC(=O)c1c(C)nc2ccccn12 | inconclusive: 10.4% | 
65 | O=C(NC1CCCCCCC1)C1c2ccccc2C(=O)N1Cc1cccs1 (stereo unspecified) | inconclusive: -29.4% | 
66 | CCOC(=O)c1ccc2c(c1)n(CCO)c(C)[n+]2CC | inconclusive: -1.84% [at 9.22 µM] | 
67 | O=C(N1CCCCC1)C12CC3CC(CC(C3)C1)C2 | inactive | 
68 | CCCCCCCCCC(=O)Nn1cnc2ccccc2c1=O | inconclusive: 1.59% | 
69 | CCC(Cc1ccccc1)NS(=O)(=O)c1ccc2c(c1)NC(=O)CO2 (stereo unspecified) |  | inconclusive: 29.1 µM [activator, single point]
70 | COc1ccc(C(CNC(=O)Cc2cc(OC)c(OC)c(OC)c2)N2CCCC2)cc1 (stereo unspecified) | inconclusive: 9.74% | 
71 | CCN(CC)C(=O)CSc1nc(-c2cccs2)cc(-c2cccs2)c1C#N |  | active: 14.6 µM
72 | COC(=O)c1cccc(Nc2ncnc3sccc23)c1 | inconclusive: -1.12% | 
73 | CCN(CC)CCN1C(=O)C(=O)/C(=C(/O)c2ccc(OC(C)C)cc2)C1c1cccs1 (stereo unspecified) |  | inconclusive: 2.59 µM [activator, full curve]
74 | COc1cccc(C(=O)c2c[nH]c(C(=O)NCc3cccnc3)c2)c1 | inconclusive: 13.1% | 
75 | COc1cccc(C(=O)OCC(=O)c2ccc(S(=O)(=O)N3CCCCC3)cc2)c1OC | inconclusive: -100% | 
76 | CC1=C(C(=O)Nc2ccc(CC(=O)NCc3ccccc3C)cc2)SCCO1 |  | inconclusive: 6.51 µM [activator, partial curve, poor fit]

Some values from the list:
Potency with Cc1cc(C)cc(C(=O)NC2CC(C)(C)NC(C)(C)C2)c1 is entered as inconclusive: 0.0731 µM [activator, full curve]
lipid storage change, negative = inhibition with O=C(NC1CCCCCCC1)C1c2ccccc2C(=O)N1Cc1cccs1 (stereo unspecified) is entered as inconclusive: -29.4%
Potency with CCN(CC)CCN1C(=O)C(=O)/C(=C(/O)c2ccc(OC(C)C)cc2)C1c1cccs1 (stereo unspecified) is entered as inconclusive: 2.59 µM [activator, full curve]
